Measurements published in PubChem BioAssay AID2685 (National Center for Advancing Translational Sciences (NCATS), 2010).
The other results are listed elsewhere or left out. The main result of the screen is listed elsewhere. These columns were measured beside it and carry no call. The list favours compounds with an active or inconclusive main result. Potencies come from curve fits of mixed quality, noted in brackets. Where a SMILES comes first, the peptide text is derived from it. [ ]: non-standard residue; d: D form. The star is where a group is joined. ξ: configuration not given here. ξArg(NO2) = N=C(NCCCC(N)C(=O)O)N[N+](=O)[O-]; Bz = O=C(c1ccccc1)*

Assay: qHTS Assay for Lipid Storage Modulators in Drosophila S3 Cells;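 for cell number change: cells counted by Cell Tracker Red CMTPX staining in the red channel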
Details: BODIPY lipid droplet fluorescence, 18-24 h; for cell number change: measured here: cell count max response, cells fed with added oleic acid
Summary of the method: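 Drosophila S3 cells got compounds at several concentrations plus oleic acid (400 uM solution). Laser-scanning cytometry with 488 nm excitation read lipid droplets at 500-530 nm and cells at 575-640 nm. Percent activity was relative to 20 uM Triacsin C.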

[1] = measured here: lipid fluorescence (Fed channel) AC50, cells fed with added oleic acid
[2] = measured here: cell number channel AC50, cells fed with added oleic acid

SMILES | cell number change | AC50 [1] | AC50 [2]
Cc1c(C(=O)Nc2ccccc2)c2cc(O)ccc2n1Cc1ccccc1 | -1.05% | 29.1 µM [falling, single point] | –
N/C(=N\[N+](=O)[O-])NCCCC(NC(=O)CNC(=O)c1ccccc1)C(=O)O (stereo unspecified) (Bz-Gly-[ξArg(NO2)]-OH) | -8.1% | 0.184 µM [falling, full curve, poor fit] | –
C[n+]1c(-c2ccccc2)cc(-c2ccc(Cl)cc2)cc1-c1ccccc1 | -156% | – | –
CC(C)Cc1[nH]c(=O)c(C#N)c2c1CCC2 | -8.27% | 3.66 µM [falling, single point] | –
CC(NCc1ccc(Cl)c(Cl)c1)C(O)c1ccccc1 (stereo unspecified) | -51.5% | 29.1 µM [falling, single point] | 16.4 µM [falling, partial curve]
CCc1ccc(OCC(=O)N2CCN(Cc3ccc4c(c3)OCO4)CC2)cc1 | 23% | 0.116 µM [rising, full curve, poor fit] | –
C=CCn1c(O)c(/C=C2/C=c3ccccc3=N2)c(=O)[nH]c1=S | 27% | – | –
Cn1cc(C(=O)NP(=O)(N2CCOCC2)N2CCOCC2)c2ccccc21 | -14.5% | 18.4 µM [falling, partial curve, poor fit] | –
COC(=O)C1=C(c2ccc(OC(F)(F)F)cc2)C[C@@H]2CC[C@H]1N2C(=O)NCCCOC(C)C | -6.81% | 2.06 µM [rising, partial curve] | –
COc1cccc(NP(=O)(Oc2ccc(Cl)cc2)Oc2ccc(Cl)cc2)c1 | 32.1% | 29.1 µM [rising, single point] | 1.64 µM [falling, partial curve]
CN(C)c1ccc(/C=C/C=C/c2sc3ccccc3[n+]2C)cc1 | -1.12% | – | –
Cc1ccc(N2C(=O)NC(=O)/C(=C/c3ccoc3)C2=O)cc1 | -30.6% | 1.3 µM [falling, partial curve] | 0.0058 µM [falling, full curve, poor fit]
COc1ccc(CC2(CCc3ccncc3)C(=O)NC(=O)NC2=O)cc1 | 15.3% | – | –
Cc1ccc(-c2cc(-c3ccc(C)cc3)[n+](-c3ccc(C(=O)[O-])cc3)c(-c3ccc(C)cc3)c2)cc1 | -32.7% | 2.31 µM [falling, partial curve, poor fit] | 14.6 µM [falling, partial curve, poor fit]
CCn1ccnc1CN1CCCC(C(=O)c2cc(F)ccc2OC)C1 (stereo unspecified) | -14.5% | 32.6 µM [falling, single point] | –
O=c1[nH]c(=O)n(Cc2ccc(F)cc2)c(O)c1C=NCCCn1ccnc1 | – | 0.461 µM [rising, single point] | –
CN1C(=O)C(=Cc2ccccc2OCc2ccc(C(=O)O)cc2)C(=O)N(C)C1=O | 92% | 0.461 µM [rising, partial curve, poor fit] | 0.731 µM [rising, single point]
Cc1ccc(C(=O)C2CN(C)CC2C(=O)c2ccc(C)cc2)cc1 (stereo unspecified) | -15.8% | 0.731 µM [falling, partial curve, poor fit] | 0.731 µM [falling, single point]
CC(N=Cc1c(O)[nH]c(=O)[nH]c1=O)c1ccccc1 (stereo unspecified) | 10.9% | 1.46 µM [falling, full curve] | –
c1ccc(CNc2c3c(nc4ccccc24)CCC3)cc1 | -53.5% | 5.8 µM [falling, full curve, poor fit] | 9.2 µM [falling, partial curve]

SMILES | cell number change | AC50 [1] | AC50 [2]
COc1ccccc1OCC#CCN1CCCC(C)C1 (stereo unspecified) | 15% | 23.1 µM [falling, single point] | –
CCNc1nc2[nH]c(=O)c3c(c2s1)OC(N)=C(C#N)C3c1cccs1 (stereo unspecified) | -22.3% | 4.11 µM [rising, single point] | –
CN(C(=O)c1ccc(Cl)nc1)C1(c2ccccc2Cl)CCCCC1=O (stereo unspecified) | 17.1% | – | –
CC(C)CCn1c(=O)c(C(=O)NCc2ccco2)c(O)c2ccccc21 | -3.74% | 2.31 µM [rising, single point] | –
CCOc1ccc(-c2cc(C)[n+](CCN(CC)CC)c(-c3ccc(OCC)cc3)c2)cc1 | -59.6% | 9.2 µM [falling, partial curve, poor fit] | 8.2 µM [falling, partial curve]
COC(=O)C1=C(N)Oc2c(c(=O)oc3ccccc23)C1c1cccnc1 (stereo unspecified) | 54.6% | 0.092 µM [rising, full curve, poor fit] | 2.31 µM [rising, partial curve]
CC(C)N1OC2CC1c1nc3ccccc3n1C2 (stereo unspecified) | 22.8% | – | 0.0731 µM [rising, full curve, poor fit]
COc1ccc(Oc2cc(NC(=O)c3nn(C)cc3[N+](=O)[O-])cc([N+](=O)[O-])c2)cc1 | 8.77% | – | –
CN(C)C(Cc1ccccc1)C(=O)c1cccs1 (stereo unspecified) | – | 6.51 µM [rising, single point] | –
COc1ccccc1N1C(=O)NC(=O)C(CCc2ccncc2)(CCc2ccncc2)C1=O | 53.5% | 6.51 µM [rising, single point] | 29.1 µM [rising, single point]
CN1CC(C(=O)c2ccc(F)cc2)C(c2ccc(F)cc2)C1 (stereo unspecified) | 18% | 5.8 µM [rising, single point] | –
Cc1cccn2c(=O)c3c(nc12)N1CCc2ccccc2C1C1(C3)C(=O)NC(=O)N(C)C1=O (stereo unspecified) | 11.5% | – | 0.058 µM [rising, full curve, poor fit]
C=CCn1c(O)c(C(C)=Nc2cc(OC)ccc2OC)c(=O)[nH]c1=O | -6.21% | 0.184 µM [rising, full curve, poor fit] | –
O=C(c1cc(F)ccc1F)C1CCCN(Cc2cc(Cl)ccc2O)C1 (stereo unspecified) | 6.2% | – | –
O=[N+]([O-])c1ccc(N2CCOCC2)c2cccnc12 | -6.15% | 6.51 µM [rising, single point] | 1.64 µM [rising, partial curve]
CCOC(=O)c1c(C)n(Cc2ccco2)c2c1cc(O)c1ccccc12 | -15.6% | 5.17 µM [rising, partial curve] | –
CCOP(=O)(OCC)C(NC(=O)c1ccccc1C)C(Cl)(Cl)Cl (stereo unspecified) | -25.7% | 5.8 µM [falling, partial curve, poor fit] | –
COc1ccccc1C1C([N+](=O)[O-])=C(N)Oc2c1c(=O)oc1ccccc21 (stereo unspecified) | – | 0.461 µM [falling, full curve] | –
CCCNC(=O)N1[C@H]2CC[C@@H]1C(C(=O)OC)=C(c1ccc(OC)c(OC)c1)C2 | -7.8% | 23.1 µM [rising, single point] | –
COC(=O)C1=C(c2ccc(Cl)c(C(F)(F)F)c2)C[C@@H]2CC[C@H]1N2C(=O)NCCCOC(C)C | -6.98% | 6.51 µM [rising, single point] | –

SMILES | cell number change | AC50 [1] | AC50 [2]
O=C1NC(=O)N(Cc2ccccc2)C(=O)/C1=C/C=C/c1ccco1 | -50% | 23.1 µM [falling, single point] | 29.1 µM [falling, single point]
Cn1c(=O)c2c(ncn2CCCl)n(C)c1=O | 5.02% | 0.517 µM [rising, partial curve, poor fit] | –
CCCNS(=O)(=O)c1ccc(OCC(=O)N2CCN(Cc3ccc4c(c3)OCO4)CC2)cc1 | 145% | 29.1 µM [rising, single point] | 29.1 µM [rising, single point]
CC(C)(C)n1cc(C(=O)c2ccccc2OCCCF)cn1 | -9.07% | – | –
CC[N+](CC)(CC)CCCOC(=O)C(O)(c1ccccc1)C1CCCCC1 (stereo unspecified) | -14.6% | 20.6 µM [falling, partial curve] | –
Nc1nc(SCCC(F)=C(F)F)n[nH]1 | -18.4% | – | –
O=C1NC(=S)N(c2ccc(Br)cc2)C(=O)/C1=C/N1CCN(C(=O)c2ccco2)CC1 | 78.7% | – | 18.4 µM [rising, single point]
C/C(=N\N1CCCCC1)c1c(O)[nH]c(=O)[nH]c1=O | 12.9% | – | –
N#CCCn1cc(C(=O)Nc2ccccc2Cl)c(-c2ccc([N+](=O)[O-])cc2)n1 | 3.75% | 6.51 µM [rising, single point] | –
CCN1CCN(Cc2ccccc2C)CC1 | -27.2% | 29.1 µM [falling, single point] | –
BrCCc1ccccc1 | 1.16% | – | –
N#Cc1ccc(Cn2cc(C(=O)c3ccco3)c3ccccc32)cc1 | -16.9% | 29.1 µM [falling, single point] | –
Cn1c2ccccc2c2c(C(=O)N3CCC4(CC3)OCCO4)cn(C3CCCCC3)c(=O)c21 | 130% | – | 10.3 µM [rising, partial curve]
C#C[C@@]1(O)CCC2C3CCC4=C/C(=N/OCC(=O)NC(CCC(N)=O)C(=O)O)CC[C@]4(C)C3CC[C@@]21C (stereo partly specified) | – | 0.259 µM [rising, partial curve, poor fit] | –
CC1(C)CC(N(CCc2ccccc2)Cc2ccccc2)CCO1 (stereo unspecified) | -25.5% | 20.6 µM [falling, single point] | –
COCCOC(=O)c1c(C)oc2ccc(OC(=O)N(C)C)cc12 | 78.5% | – | 23.1 µM [rising, single point]
CCN(CC)C(=O)c1ccc(NC(=O)c2c(C)noc2C)cc1 | 10.6% | 3.26 µM [falling, full curve] | 0.092 µM [falling, full curve, poor fit]
O=C(Cn1cnc2ccccc2c1=O)NCCC(=O)N1CCC2(CC1)OCCO2 | 5.57% | – | –
COC(=O)C1=C(c2ccc(OC(F)(F)F)cc2)C[C@@H]2CC[C@H]1N2C(=O)NC(C)C | -5.78% | 0.0058 µM [rising, full curve, poor fit] | –

Reformatted with tabs: part of the list above.
SMILES	cell number change	AC50 [1]	AC50 [2]
c1ccc(CNc2c3c(nc4ccccc24)CCC3)cc1	-53.5%	5.8 µM [falling, full curve, poor fit]	9.2 µM [falling, partial curve]
COc1ccccc1OCC#CCN1CCCC(C)C1 (stereo unspecified)	15%	23.1 µM [falling, single point]	–
CCNc1nc2[nH]c(=O)c3c(c2s1)OC(N)=C(C#N)C3c1cccs1 (stereo unspecified)	-22.3%	4.11 µM [rising, single point]	–
